Reference: PMC8537223
These are yes or no findings as the source states them, for the method shown. Some binding calls cover weakened binding; strength is not graded here. One block for each molecule: values may come before it.

Amino acid sequences for entries named in this document (tags omitted).
UniProt Q39255: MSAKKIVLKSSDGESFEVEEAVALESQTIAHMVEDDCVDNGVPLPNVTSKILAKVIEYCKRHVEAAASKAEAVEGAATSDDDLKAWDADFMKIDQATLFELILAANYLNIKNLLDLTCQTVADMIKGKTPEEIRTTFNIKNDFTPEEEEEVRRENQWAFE

Experiments:
[1] = target: T1, F-BOX STRESS INDUCED 1 (FBS1), full-length, yeast two-hybrid construct (Arabidopsis thaliana) (UniProt Q8GX77); test: two-hybrid; GAL4 system, baits (DBD, pGBKT7-GW) in Y2H Gold mated with preys (AD, pGADT7-GW) in Y187; diploids spotted in dilutions on SD -TL, -TLH (less stringent) and -TLHA (more stringent), 2 days at 30 °C
T1 sequence: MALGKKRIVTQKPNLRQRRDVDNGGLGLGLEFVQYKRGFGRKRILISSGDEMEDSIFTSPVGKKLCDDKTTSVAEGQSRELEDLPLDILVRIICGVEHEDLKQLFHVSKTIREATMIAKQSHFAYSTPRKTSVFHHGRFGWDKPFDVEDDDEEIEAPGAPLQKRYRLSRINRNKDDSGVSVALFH

[2] = target: T2, F-BOX STRESS INDUCED 2 (FBS2), yeast two-hybrid construct (Arabidopsis thaliana) (UniProt O65416); test: as above
T2 sequence: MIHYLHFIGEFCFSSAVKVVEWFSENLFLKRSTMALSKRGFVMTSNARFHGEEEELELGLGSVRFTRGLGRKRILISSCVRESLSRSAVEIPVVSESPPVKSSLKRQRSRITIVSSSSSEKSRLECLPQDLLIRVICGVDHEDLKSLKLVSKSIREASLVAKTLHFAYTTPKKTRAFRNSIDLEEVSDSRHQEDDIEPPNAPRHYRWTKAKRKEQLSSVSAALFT

[3] = target: T3, F-BOX STRESS INDUCED 3 (FBS3), yeast two-hybrid construct (Arabidopsis thaliana) (UniProt Q9S9T6); test: as above
T3 sequence: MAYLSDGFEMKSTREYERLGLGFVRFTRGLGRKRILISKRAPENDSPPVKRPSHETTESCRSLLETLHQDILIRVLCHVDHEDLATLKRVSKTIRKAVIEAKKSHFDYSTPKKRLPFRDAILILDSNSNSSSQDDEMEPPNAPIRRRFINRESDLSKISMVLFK

[4] = target: T4, F-BOX STRESS INDUCED 4 (FBS4), yeast two-hybrid construct (Arabidopsis thaliana) (UniProt Q5XF11); test: as above
T4 sequence: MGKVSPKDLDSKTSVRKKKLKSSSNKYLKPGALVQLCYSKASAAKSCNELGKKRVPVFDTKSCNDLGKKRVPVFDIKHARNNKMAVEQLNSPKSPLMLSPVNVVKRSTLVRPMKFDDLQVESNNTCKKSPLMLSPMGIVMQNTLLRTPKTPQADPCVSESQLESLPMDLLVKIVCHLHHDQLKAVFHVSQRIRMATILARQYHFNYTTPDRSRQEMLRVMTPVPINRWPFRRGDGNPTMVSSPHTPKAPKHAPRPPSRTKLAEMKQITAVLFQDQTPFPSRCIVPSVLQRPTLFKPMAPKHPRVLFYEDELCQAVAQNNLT

[5] = target: T1, F-BOX STRESS INDUCED 1 (FBS1), full-length, yeast two-hybrid construct (Arabidopsis thaliana); test: two-hybrid; told in the text without a figure: FBS1 with the LXLXL leucines changed to alanine against FBIP1; FBS1 against TPL, both as bait and as prey

binding [1]: binds | binding [2]: binds weakly | binding [3]: binds | binding [4]: binds
Molecule: Arabidopsis SKP1 (ASK1), yeast two-hybrid construct (from UniProt Q39255 1-160)

binding [5]: no binding
B1: TOPLESS (TPL), yeast two-hybrid construct (protein, UniProt Q94AI7 1-1131)
chain: MSSLSRELVFLILQFLDEEKFKETVHKLEQESGFFFNMKYFEDEVHNGNWDEVEKYLSGFTKVDDNRYSMKIFFEIRKQKYLEALDKHDRPKAVDILVKDLKVFSTFNEELFKEITQLLTLENFRENEQLSKYGDTKSARAIMLVELKKLIEANPLFRDKLQFPTLRNSRLRTLINQSLNWQHQLCKNPRPNPDIKTLFVDHSCGPPNGARAPSPVNNPLLGGIPKAGGFPPLGAHGPFQPTASPVPTPLAGWMSSPSSVPHPAVSAGAIALGGPSIPAALKHPRTPPTNASLDYPSADSEHVSKRTRPMGISDEVNLGVNMLPMSFSGQAHGHSPAFKAPDDLPKTVARTLSQGSSPMSMDFHPIKQTLLLVGTNVGDIGLWEVGSRERLVQKTFKVWDLSKCSMPLQAALVKEPVVSVNRVIWSPDGSLFGVAYSRHIVQLYSYHGGEDMRQHLEIDAHVGGVNDISFSTPNKQLCVITCGDDKTIKVWDAATGVKRHTFEGHEAPVYSVCPHYKENIQFIFSTALDGKIKAWLYDNMGSRVDYDAPGRWCTTMAYSADGTRLFSCGTSKDGESFIVEWNESEGAVKRTYQGFHKRSLGVVQFDTTKNRYLAAGDDFSIKFWDMDAVQLLTAIDGDGGLQASPRIRFNKEGSLLAVSGNENVIKIMANSDGLRLLHTFENISSESSKPAINSIAAAAAAAATSAGHADRSANVVSIQGMNGDSRNMVDVKPVITEESNDKSKIWKLTEVSEPSQCRSLRLPENLRVAKISRLIFTNSGNAILALASNAIHLLWKWQRNERNATGKATASLPPQQWQPASGILMTNDVAETNPEEAVPCFALSKNDSYVMSASGGKISLFNMMTFKTMATFMPPPPAATFLAFHPQDNNIIAIGMDDSTIQIYNVRVDEVKSKLKGHSKRITGLAFSNVLNVLVSSGADAQLCVWNTDGWEKQRSKVLPLPQGRPNSAPSDTRVQFHQDQAHFLVVHETQLAIYETTKLECMKQWAVRESLAPITHATFSCDSQLVYASFMDATVCVFSSANLRLRCRVNPSAYLPASLSNSNVHPLVIAAHPQEPNMFAVGLSDGGVHIFEPLESEGKWGVAPPAENGSASGAPTAPSVGASASDQPQR
